Measurements reported in PubChem BioAssay AID1259307 (Sanger Institute, 2017)
The whole screen tested 794 reagents; this is a part drawn at random. Of all reagents, 15 (1.9%) are marked active. 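Calls reflect lethality without any drug; synergy scores did not enter the calls.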 No viability above 1 is reported: the scale is capped. Not stated in the record: the amount of reagent, the time to read-out.

Screen: 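Identify kinases needed for SW620 growth or enhancing BYL719, cetuximab or trametinib effects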 (primary screen)
Cell system: SW620 colorectal cancer cells
Knock-down reagent: siRNA pool against human genes
Conditions: anchor drugs BYL719 at 1 µM, cetuximab at 5 µg/ml or trametinib at 10 nM, each beside a DMSO vehicle arm
Read-out: 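Cell viability in each well relative to non-targeting controls, averaged over replicates and turned into a robust z-score; synergy with BYL719 (1 µM), cetuximab (5 µg/ml), trametinib (10 nM) versus DMSO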
Direction: viability robust z-score, no drug and viability vs control, no drug: higher = more viable cells; synergy score with BYL719 and synergy score with cetuximab and synergy score with trametinib: higher = stronger synthetic lethality with the drug
Call rule: 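Essential when the viability robust z-score without drug is under -3; synergy scores are ignored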
Calls: active = essential (lethal alone); inactive = no change alone

gene symbol | viability robust z-score, no drug | viability vs control, no drug | synergy score with BYL719 | synergy score with cetuximab | synergy score with trametinib | call
CDK8 | 0.736 | 1 | -0.0919 | 0 | -0.0121 | inactive
TPD52L3 | 0.736 | 1 | -0.0405 | 0 | 0.0357 | inactive
PDK4 | 0.736 | 1 | 0.069 | 0.00834 | 0.0562 | inactive
NUAK2 | 0.468 | 0.975 | -0.0349 | 0.0761 | -0.0163 | inactive
BMPR2 | 0.567 | 0.984 | -0.0171 | 0.0282 | 0.00699 | inactive
EFNB3 | -3.77 | 0.584 | -0.0778 | -0.169 | -0.0742 | active
CHEK2 | 0.293 | 0.959 | 0.0429 | 0.0617 | 0.0283 | inactive
SGK1 | 0.736 | 1 | -0.0763 | 0 | -0.0196 | inactive
MINK1 | -0.367 | 0.898 | -0.00364 | -0.0592 | 0.0884 | inactive
MGA | -0.0993 | 0.923 | 0.0182 | 0.0493 | -0.0304 | inactive
CIB2 | -2.16 | 0.733 | -0.0302 | 0.011 | 0.0709 | inactive
HK1 | 0.736 | 1 | -0.0737 | 0 | -0.0469 | inactive
TSSK6 | 0.718 | 0.998 | -0.0542 | -0.00164 | 0.0216 | inactive
SF3B1 | -5.91 | 0.387 | -0.032 | -0.0924 | -0.0715 | active
CDK5R2 | -0.347 | 0.9 | -0.0156 | -0.1 | -0.168 | inactive
PIM3 | 0.677 | 0.995 | -0.00298 | 0.113 | 0.0703 | inactive
AK7 | -0.725 | 0.865 | -0.125 | -0.0203 | -0.0588 | inactive
PRKAA1 | 0.736 | 1 | -0.0731 | 0 | 0.076 | inactive
ULK2 | 0.354 | 0.965 | 0.0089 | -0.0353 | 0.069 | inactive
PLK2 | -1.93 | 0.754 | -0.138 | -0.15 | -0.218 | inactive
PSTK | 0.736 | 1 | 0.0108 | 0.0592 | 0.0735 | inactive
PAK5 | -1.07 | 0.833 | -0.0334 | -0.0596 | 0.105 | inactive
PDXK | 0.736 | 1 | -0.00455 | 0 | -0.0425 | inactive
MAP3K1 | -0.175 | 0.916 | -0.0635 | -0.0841 | 0.0321 | inactive
GNE | 0.465 | 0.975 | -0.0392 | -0.0143 | 0.0517 | inactive
KALRN | 0.325 | 0.962 | 0.046 | 0.0378 | 0.00879 | inactive
PLK1 | -6.14 | 0.365 | 0.0503 | -0.0191 | 0.000937 | active
PKN1 | 0.0298 | 0.935 | 0.00605 | -0.0335 | -0.0385 | inactive
CAMKV | 0.736 | 1 | -0.0692 | 0.0288 | 0.00764 | inactive
TAOK1 | 0.59 | 0.986 | -0.0511 | -0.0135 | 0.0315 | inactive
FXN | 0.736 | 1 | -0.0919 | 0.00208 | -0.128 | inactive

Sorted by “synergy score with cetuximab” (descending): 5 of the entries above.
gene symbol | viability robust z-score, no drug | viability vs control, no drug | synergy score with BYL719 | synergy score with cetuximab | synergy score with trametinib | call
PIM3 | 0.677 | 0.995 | -0.00298 | 0.113 | 0.0703 | inactive
PRKAA1 | 0.736 | 1 | -0.0731 | 0 | 0.076 | inactive
AK7 | -0.725 | 0.865 | -0.125 | -0.0203 | -0.0588 | inactive
ULK2 | 0.354 | 0.965 | 0.0089 | -0.0353 | 0.069 | inactive
PLK2 | -1.93 | 0.754 | -0.138 | -0.15 | -0.218 | inactive

More records follow.
gene symbol | viability robust z-score, no drug | viability vs control, no drug | synergy score with BYL719 | synergy score with cetuximab | synergy score with trametinib | call
TAOK2 | 0.736 | 1 | -0.0491 | 0.0133 | 0.0885 | inactive
PFKFB3 | 0.58 | 0.986 | 0.0606 | 0.00602 | 0.139 | inactive
NEK10 | 0.73 | 0.999 | 0.076 | 0.0301 | 0.0328 | inactive
FLT1 | -0.314 | 0.903 | -0.0557 | -0.0969 | -0.00627 | inactive
PRKCZ | 0.736 | 1 | -0.0919 | 0 | -0.118 | inactive
PRP4K | -0.937 | 0.846 | -0.00254 | 0.0139 | 0.118 | inactive
PRPS1L1 | 0.0962 | 0.941 | 0.014 | 0.0194 | 0.059 | inactive
PHKG1 | -1.85 | 0.761 | -0.245 | -0.195 | -0.117 | inactive
HUS1 | 0.201 | 0.951 | -0.0167 | 0.0443 | 0.028 | inactive
STK38 | -1.58 | 0.787 | -0.137 | -0.213 | -0.238 | inactive
IRAK1 | -0.754 | 0.862 | -0.112 | -0.138 | -0.0949 | inactive
EPHB2 | -0.0968 | 0.923 | -0.0253 | -0.0769 | 0.0629 | inactive
NME4 | 0.324 | 0.962 | 0.0151 | -0.0123 | 0.133 | inactive
GRK4 | -0.255 | 0.909 | -0.0529 | -0.0892 | -0.127 | inactive
PIK3C2G | 0.118 | 0.943 | 0.169 | 0.0221 | 0.157 | inactive
GUCY2C | 0.736 | 1 | -0.00559 | 0 | 0.0649 | inactive
FGFR4 | 0.731 | 1 | -0.0389 | -0.000486 | 0.0291 | inactive
TAB1 | 0.736 | 1 | -0.00413 | 0 | -0.00953 | inactive
PFKFB2 | 0.736 | 1 | 0.00531 | 0 | -0.0999 | inactive
